{"source": "PubChem BioAssay AID1508588 (Peter MacCallum Cancer Centre, 2020)", "aim": "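Knock-downs boosting vemurafenib effects on melanoma cell growth or lactate release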 (primary screen)", "cells": "human WM266.4 melanoma cells (BRAF V600 mutant)", "knock-down reagent": "siRNA pool against human genes, 40 nM", "timing": "96 h from transfection to read-out", "treatment": "vemurafenib 300 nM (about IC25), added 48 h after transfection, for 48 h; comparison arm got DMSO vehicle only", "read-out": "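Cell gain (DAPI nuclei at end minus before drug, mean of two replicates) and medium lactate by absorbance per cell, both as ratio to non-targeting siRNA, also grouped into fold-change classes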", "reading the numbers": "cell gain with vemurafenib: higher = more cell gain than with non-targeting siRNA; lactate per cell with vemurafenib: higher = more lactate made per cell", "rule for the call": "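Enhancement is called by pairing each knock-down's vehicle-arm and drug-arm fold-change classes for viability or glycolysis; which class combinations qualify is not given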", "meaning of the calls": "active = enhances vemurafenib effect; inactive = no enhancement seen", "note": "The whole screen tested about 18,000 reagents; this is an unselected part. 790 of them (4.4%) count as active. 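Calls rest on a combination of fold-change classes in drug and vehicle arms, not all shown here.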 Entries without a mark were called inactive."}
{"target": "CYB5B", "cell gain with vemurafenib": 0.73, "lactate per cell with vemurafenib": 0.98}
{"target": "PTGES3", "cell gain with vemurafenib": 0.88, "lactate per cell with vemurafenib": 1.08}
{"target": "TRIM10", "cell gain with vemurafenib": 0.64, "lactate per cell with vemurafenib": 0.96}
{"target": "ZNF239", "cell gain with vemurafenib": 0.79, "lactate per cell with vemurafenib": 1.05}
{"target": "BARD1", "cell gain with vemurafenib": 1.08, "lactate per cell with vemurafenib": 0.69}
{"target": "ZNF418", "cell gain with vemurafenib": 0.71, "lactate per cell with vemurafenib": 0.54}
{"target": "NUP210", "cell gain with vemurafenib": 0.47, "lactate per cell with vemurafenib": 0.32}
{"target": "MPDZ", "cell gain with vemurafenib": 1.04, "lactate per cell with vemurafenib": 0.82}
{"target": "CACNG6", "cell gain with vemurafenib": 0.9, "lactate per cell with vemurafenib": 0.6}
{"target": "MGST1", "cell gain with vemurafenib": 0.63, "lactate per cell with vemurafenib": 1.66}
{"target": "CSF3R", "cell gain with vemurafenib": 0.49, "lactate per cell with vemurafenib": 1.48}
{"target": "OR51B5", "cell gain with vemurafenib": 0, "lactate per cell with vemurafenib": 0.82}
{"target": "OTULINL", "cell gain with vemurafenib": 0.69, "lactate per cell with vemurafenib": 0.8}
{"target": "XPO5", "cell gain with vemurafenib": 0.8, "lactate per cell with vemurafenib": 0.47}
{"target": "RNPC3", "cell gain with vemurafenib": 0.53, "lactate per cell with vemurafenib": 0.81}
{"target": "PDCD7", "cell gain with vemurafenib": 0.13, "lactate per cell with vemurafenib": 1.97}
{"target": "HOXA13", "cell gain with vemurafenib": 1.27, "lactate per cell with vemurafenib": 1.25}
{"target": "NBPF3", "cell gain with vemurafenib": 1.21, "lactate per cell with vemurafenib": 0.5}
{"target": "ACAT1", "cell gain with vemurafenib": 0.55, "lactate per cell with vemurafenib": 1.19}
{"target": "CASTOR1", "cell gain with vemurafenib": 0.84, "lactate per cell with vemurafenib": 0.84}
{"target": "GPC2", "cell gain with vemurafenib": 0.64, "lactate per cell with vemurafenib": 0.3}
{"target": "C3orf22", "cell gain with vemurafenib": 0.22, "lactate per cell with vemurafenib": 1.34}
{"target": "BPGM", "cell gain with vemurafenib": 1.24, "lactate per cell with vemurafenib": 0.55}
{"target": "CPXM2", "cell gain with vemurafenib": 0.85, "lactate per cell with vemurafenib": 0.66}
{"target": "APOA2", "cell gain with vemurafenib": 0.2, "lactate per cell with vemurafenib": 2.05}
{"target": "PAK6", "cell gain with vemurafenib": 0.38, "lactate per cell with vemurafenib": 1.12}
{"target": "FNIP1", "cell gain with vemurafenib": 0.56, "lactate per cell with vemurafenib": 1.64}
{"target": "C3AR1", "cell gain with vemurafenib": 0.93, "lactate per cell with vemurafenib": 0.96}
{"target": "HEATR5B", "cell gain with vemurafenib": 0.9, "lactate per cell with vemurafenib": 0.76}
{"target": "EHD4", "cell gain with vemurafenib": 0.95, "lactate per cell with vemurafenib": 0.48}
{"target": "BCR", "cell gain with vemurafenib": 0.23, "lactate per cell with vemurafenib": 1.68}
{"target": "ARHGEF6", "cell gain with vemurafenib": 0.73, "lactate per cell with vemurafenib": 0.86}
{"target": "EPHA1", "cell gain with vemurafenib": 0.33, "lactate per cell with vemurafenib": 0.84}
{"target": "TIMM29", "cell gain with vemurafenib": 0.41, "lactate per cell with vemurafenib": 1.73}
{"target": "CES5A", "cell gain with vemurafenib": 0.83, "lactate per cell with vemurafenib": 0.95}
{"target": "CYB5R1", "cell gain with vemurafenib": 0.64, "lactate per cell with vemurafenib": 1.38}
{"target": "PCMT1", "cell gain with vemurafenib": 1.06, "lactate per cell with vemurafenib": 0.51}
{"target": "ZNF621", "cell gain with vemurafenib": 0.71, "lactate per cell with vemurafenib": 0.73}
{"target": "GLI4", "cell gain with vemurafenib": 0.91, "lactate per cell with vemurafenib": 0.39}
{"target": "RAD51C", "cell gain with vemurafenib": 0.76, "lactate per cell with vemurafenib": 1}

Looked up above:
CYB5R1, cell gain with vemurafenib: 0.64
Value for EPHA1 under “lactate per cell with vemurafenib”: 0.84
C3orf22, lactate per cell with vemurafenib → 1.34
For “cell gain with vemurafenib”, APOA2 has 0.2
Under “cell gain with vemurafenib”, NBPF3 reads 1.21
Value of NUP210 in “lactate per cell with vemurafenib”: 0.32
